Source: PubChem BioAssay AID1508597 (Cure First, 2020)

Test: 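Genes whose silencing sensitises or protects ovarian cancer cells against rucaparib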 (primary screen)
Cell system: human ovarian carcinoma lines grown from tumours: OCI-P5x (papillary serous) and OCI-C5x (clear cell)
Knock-down reagent: siRNA pool against human genes, 1.25 pmol siRNA per well
Time to read-out: 72 h or 96 h, depending on the cell culture
Conditions: rucaparib 20 µM (about IC30) or vehicle, present until read-out
Rucaparib or vehicle: Vehicle
Cell line: OCI-C5x (clear cell)
Measurement: 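Luminescent ATP-based viability assay read 72 or 96 h after transfection, depending on culture, given as normalised percent viability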
Direction: viability, normalised: higher = more viable cells remaining
Active means: 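Active when normalised viability falls below 80 percent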
Calls: active = viability under 80%; inactive = viability 80% or more
Shown is a random part of the about 2,100 reagents, under one of the conditions tested. 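Calls flag viability under 80% in either arm, not effects specific to rucaparib; the reference for percent is not stated.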 Unmarked entries are inactive. A reagent listed more than once was tested more than once; the source does not tell the runs apart. Reagent sequences are not shown. Not stated in the record: the 100% reference.

gene	technical replicate	viability, normalised (%)
SMC1A (GeneID 8243)	1	31.6 (active)
SMC1A (GeneID 8243)	1	61.9 (active)
SMC1A (GeneID 8243)	2	28.5 (active)
SMC1A (GeneID 8243)	2	64.4 (active)
SMC1A (GeneID 8243)	3	36.1 (active)
SMC1A (GeneID 8243)	3	62.1 (active)
ACTG1 (GeneID 71)	1	67.4 (active)
ACTG1 (GeneID 71)	2	59.8 (active)
ACTG1 (GeneID 71)	3	58.8 (active)

Look-ups from the entries so far:
Result of ACTG1 (GeneID 71), technical replicate 1 in “viability, normalised (%)”: 67.4 (active)
Entry of ACTG1 (GeneID 71), technical replicate 3 under “viability, normalised (%)”: 58.8 (active)

Further entries follow:
gene	technical replicate	viability, normalised (%)
CHD3 (GeneID 1107)	1	36 (active)
CHD3 (GeneID 1107)	2	53.7 (active)
CHD3 (GeneID 1107)	3	61.8 (active)
ARID4A (GeneID 5926)	1	40.6 (active)
ARID4A (GeneID 5926)	2	54.9 (active)
ARID4A (GeneID 5926)	3	64.6 (active)
MAP3K11 (GeneID 4296)	1	66.7 (active)
MAP3K11 (GeneID 4296)	2	46 (active)
MAP3K11 (GeneID 4296)	3	63.4 (active)
S100A6 (GeneID 6277)	1	30.2 (active)
S100A6 (GeneID 6277)	2	36.4 (active)
S100A6 (GeneID 6277)	3	30.3 (active)
ERBB2 (GeneID 2064)	1	45.7 (active)
ERBB2 (GeneID 2064)	2	38.8 (active)
ERBB2 (GeneID 2064)	3	54.3 (active)
